Assay results: PubChem BioAssay AID2685 (National Center for Advancing Translational Sciences (NCATS), 2010)
The list shows a part of the results. Further columns of the screen follow, without active or inactive calls. Compounds called inactive in the main read-out are mostly missing here. Potencies come from curve fits of mixed quality, noted in brackets.

Experiment: qHTS Assay for Lipid Storage Modulators in Drosophila S3 Cells;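 as to cell number change: cells counted by Cell Tracker Red CMTPX staining in the red channel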
Conditions: BODIPY lipid droplet fluorescence, 18-24 h; for cell number change: measured here: cell count max response, cells fed with added oleic acid
Method in brief: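 Laser-scanning cytometry quantifies lipid droplet accumulation (500–530 nm total intensity; droplet/cell object ratio) in oleic acid-fed (400 uM added) Drosophila S3 cells treated with a concentration series. 20 uM Triacsin C defined 100% inhibition.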

[1] = measured here: cell number channel AC50, cells fed with added oleic acid
[2] = measured here: lipid fluorescence (Fed channel) AC50, cells fed with added oleic acid

COc1ccc(OC)c(NC(=O)c2cc(S(=O)(=O)N(C)C)ccc2N2CCCC2)c1
cell number change: -1.18%

CC1=CC(C)[C@@H]2COC(c3ccc(O)cc3)[C@H]1C2C (some centres not stated)
cell number change: -55.7% | AC50 [1]: 8.2 µM [falling, partial curve] | AC50 [2]: 14.6 µM [falling, partial curve, poor fit]

Cc1cccc(C)c1NC(=S)N1CCC(N(C)CC2CCCO2)CC1 (configuration not stated)
AC50 [2]: 23.1 µM [falling, partial curve]

O=C(NC1CCSC1=O)C1CC(=O)N(c2ccc(F)cc2)C1 (configuration not stated)
cell number change: 9.57% | AC50 [2]: 29.1 µM [rising, partial curve]

O=C(Nc1ccc(C(=O)c2ccc(C(=O)O)c(C(=O)O)c2)cc1)c1ccccc1
cell number change: 19.8% | AC50 [2]: 29.1 µM [falling, single point]

Cc1cc(-c2ccccc2)n(-c2cc(N/N=C/c3ccccc3O)ncn2)n1
cell number change: 3.92% | AC50 [1]: 6.51 µM [falling, single point] | AC50 [2]: 4.11 µM [falling, full curve]

CC(=O)c1cc(CN2C(=O)c3ccccc3C2=O)cs1
cell number change: -1.44% | AC50 [1]: 0.517 µM [rising, full curve] | AC50 [2]: 0.517 µM [rising, full curve]

CC1=C(CO)C(=O)OC([C@@H](C)C2CC[C@H]3C4C[C@H]5O[C@]56[C@@H](O)C=CC(=O)[C@]6(C)C4CC[C@]23C)C1 (some centres not stated)
cell number change: -66.1% | AC50 [1]: 29.1 µM [falling, single point] | AC50 [2]: 32.6 µM [falling, single point]

CC(=O)c1cnn(-c2cc(Oc3cccc(C)c3)ncn2)c1C
cell number change: 0.13%

CCn1c(=O)n(CC)c2cc(S(N)(=O)=O)c(C)cc21
cell number change: -14.2% | AC50 [2]: 0.651 µM [falling, full curve]

COc1ccc(C(C#N)Nc2ccc(C)cc2)cc1 (configuration not stated)
cell number change: 18.9% | AC50 [2]: 18.4 µM [falling, partial curve]

Cc1c(NC(=O)Oc2ccccc2)sc(=S)n1C
cell number change: 12.8% | AC50 [2]: 6.51 µM [falling, single point]

COc1cc(OC)c(C(=O)O/N=C(\N)c2ccccc2)cc1OC
cell number change: 4.63% | AC50 [1]: 0.00517 µM [rising, full curve, poor fit]

CC1Cc2ccccc2N1C(=O)CN1C(=O)CN(C)C(=O)c2ccccc21 (configuration not stated)
cell number change: 16.5%

Clc1ccsc1-c1ccnc(-n2cccc2)n1
cell number change: -21.5% | AC50 [1]: 0.58 µM [falling, full curve] | AC50 [2]: 0.461 µM [falling, full curve]

CN1CCN(c2oc(Cc3cccc4ccccc34)nc2C#N)CC1
cell number change: 18.2% | AC50 [2]: 23.1 µM [rising, single point]

O=c1c2[nH]cnc2n(-c2ccccc2)c(=O)n1Cc1ccccc1
cell number change: -23.6% | AC50 [2]: 29.1 µM [rising, single point]

O=C(CN1C(=O)c2ccccc2S1(=O)=O)N1CCN(c2ccc(F)cc2)CC1
cell number change: 27.1% | AC50 [2]: 6.51 µM [rising, single point]

CC1(C)CC(=O)C2=C(C1)NC(=O)CC2C(=O)NCc1ccc(F)cc1 (configuration not stated)
cell number change: -98.8% | AC50 [1]: 18.4 µM [falling, partial curve] | AC50 [2]: 7.31 µM [falling, single point]

COc1ccc(-c2nc3c(c(SCC(=O)Nc4cccc(O)c4)n2)Cc2c(CO)cnc(C)c2O3)cc1
cell number change: -30.1% | AC50 [1]: 8.2 µM [falling, partial curve, poor fit] | AC50 [2]: 13 µM [falling, partial curve]

O=C(Nc1cccc(Cl)c1)N1CCN(C/C=C/c2ccccc2)CC1
cell number change: -17% | AC50 [2]: 29.1 µM [rising, single point]

COc1ccc(CCNC(=O)CCC(=O)N2CCN(S(=O)(=O)c3ccc(Cl)cc3)CC2)cc1OC
cell number change: -15.1% | AC50 [1]: 6.51 µM [falling, single point] | AC50 [2]: 0.103 µM [rising, full curve, poor fit]

CC(Sc1nnc(C(F)(F)F)n1C)C(=O)Nc1ccc(S(N)(=O)=O)cc1 (configuration not stated)
cell number change: -18.1% | AC50 [1]: 0.411 µM [falling, single point] | AC50 [2]: 0.411 µM [falling, partial curve, poor fit]

CC(C(=O)Nc1nncs1)N1C(=O)C2C3C=CC(C3)C2C1=O (configuration not stated)
cell number change: -18.1% | AC50 [2]: 6.51 µM [falling, partial curve]

Cc1cc(C)n(CCNC(=O)C2CCC(=O)N(Cc3ccc(Cl)cc3)C2)n1 (configuration not stated)
cell number change: 5.2%

Cc1ccc(N(CC(=O)O)S(=O)(=O)c2cccc3nonc23)cc1
cell number change: 5.73% | AC50 [2]: 0.13 µM [falling, full curve, poor fit]

Cc1cc2ncn(/N=C/c3ccc(-c4ccccc4)o3)c2cc1C
cell number change: -69% | AC50 [1]: 10.3 µM [falling, partial curve, poor fit]

N#C/C(=N\Nc1cccc(C(F)(F)F)c1)C(=O)c1csc(-c2cccnc2)n1
cell number change: -39.2% | AC50 [2]: 29.1 µM [falling, single point]

C=Cc1ccc(N=Cc2c(O)ccc3ccccc23)cc1
cell number change: -4.26% | AC50 [2]: 0.13 µM [falling, full curve, poor fit]

COc1cccc(NC(=O)C2CCCN2C(=O)Nc2ccccc2)c1 (configuration not stated)
cell number change: 3.36% | AC50 [2]: 6.51 µM [rising, single point]

CC(=O)O[C@H]1CC[C@H]2[C@@H]3CCc4cc(O)ccc4[C@H]3CC[C@]12C
cell number change: -52.2% | AC50 [1]: 10.3 µM [falling, partial curve] | AC50 [2]: 20.6 µM [falling, single point]

COc1cc(CCNc2ccc3nnc(-c4ccccc4)n3n2)cc(OC)c1OC
cell number change: 8.11% | AC50 [2]: 1.46 µM [rising, partial curve]

Cc1noc(C)c1S(=O)(=O)NC1CCN(Cc2ccccc2)CC1
cell number change: 28.6% | AC50 [2]: 6.51 µM [rising, partial curve]

O=C(O)c1ccc(N/N=C/c2ccc(OC(=O)c3ccccc3Cl)cc2)cc1
cell number change: 12.2%

CC1NC(=O)NC1CCCCCC(=O)Nc1ccc(F)c(Cl)c1 (configuration not stated)
cell number change: 56.4% | AC50 [1]: 18.4 µM [rising, single point]

Cc1occc1C(=O)N1CCCC(N2CCN(c3ccccc3F)CC2)C1 (configuration not stated)
cell number change: 17.3% | AC50 [2]: 29.1 µM [rising, single point]

COc1ccc(N2C3=[N+](CC2(C)O)c2ccccc2CC3)cc1 (configuration not stated)
cell number change: 4.49% | AC50 [2]: 18.4 µM [rising, single point]

O=C(CN1CCN(C(=O)CCC(=O)N2CCC(c3ccccc3)=N2)CC1)Nc1ccc(F)cc1
cell number change: -8.35% | AC50 [2]: 20.6 µM [rising, single point]

Oc1c(/C=N/c2ncn[nH]2)ccc2ccccc12
cell number change: -0.558%

CC(C)(C)c1ccc(OCC(=O)N2CCCCCC2)c(Br)c1
cell number change: 27.4% | AC50 [2]: 2.06 µM [falling, partial curve]

O=C(Nc1nc(NC(=O)c2ccco2)n(-c2ccccc2)n1)c1ccccc1
cell number change: -109% | AC50 [1]: 16.4 µM [falling, partial curve] | AC50 [2]: 23.1 µM [falling, single point]

Cc1cc(C)n(-c2nc3sc4c(c3c(=O)[nH]2)CCCC4)n1
cell number change: -3.48% | AC50 [2]: 0.13 µM [falling, full curve, poor fit]

O=C(Cn1ncc(Cl)c(Cl)c1=O)N1CCOCC1
cell number change: -7.37%

CCc1ccc(NC(=S)NC(=O)c2c(-c3ccccc3Cl)noc2C)cc1
cell number change: 23.4% | AC50 [2]: 6.51 µM [rising, full curve]

CC(=O)c1ccc(NS(=O)(=O)c2ccc(C)cc2)cc1
cell number change: 37% | AC50 [1]: 7.31 µM [rising, partial curve]

CC(=O)N(c1ccc2oc(=O)sc2c1)S(=O)(=O)c1cccc2cccnc12
cell number change: 28.2% | AC50 [2]: 0.13 µM [rising, partial curve, poor fit]

Fc1ccc(-c2nnc(CN3CCN(c4ncc(C(F)(F)F)cc4Cl)CC3)o2)cc1
AC50 [1]: 0.651 µM [falling, single point]

COc1ccc(/C=C2\SC(=S)N(CCCC(=O)Nc3ccccn3)C2=O)cc1OC
AC50 [2]: 1.84 µM [rising, partial curve]

O=C(CCc1ccccc1)N=C1SC2CS(=O)(=O)CC2N1Cc1ccc(F)cc1 (configuration not stated)
cell number change: 13.4%

CCC(=O)c1ccc(OCC(O)Cn2nc(C)cc2C)cc1 (configuration not stated)
cell number change: -4.01%

O/N=C1/CCSc2ccccc21
cell number change: -0.293% | AC50 [2]: 0.58 µM [falling, single point]

Oc1ccc(-c2nnc(-c3ccccc3)c(-c3ccccc3)n2)cc1
cell number change: -62.5% | AC50 [1]: 9.2 µM [falling, partial curve] | AC50 [2]: 8.2 µM [falling, partial curve]

O=C(NC1CCCC1)C1CC1c1ccccc1 (configuration not stated)
cell number change: 14.1%

CCOc1ccc(N2CC(C(=O)Nc3ccc(OC)c(S(=O)(=O)N4CCCCC4)c3)CC2=O)cc1 (configuration not stated)
AC50 [2]: 0.58 µM [rising, single point]

COc1ccc(Cl)cc1NC(=O)c1oc(C)nc1C
AC50 [1]: 0.326 µM [rising, full curve] | AC50 [2]: 0.58 µM [rising, single point]

CN(C)/N=C/c1ccc(OS(=O)(=O)c2ccccc2)cc1
cell number change: 17.2% | AC50 [2]: 23.1 µM [rising, partial curve]

CCOC(=O)N1CCC(NC(=O)Cn2cccc2C(=O)c2ccccc2C)CC1
cell number change: -1.91%

O=C(O)C1CC(=O)N(CCc2c[nH]c3ccccc23)C1 (configuration not stated)
cell number change: -4.14% | AC50 [2]: 0.146 µM [falling, full curve, poor fit]

O=S(=O)(c1ccc2c(c1)CCCN2)N1CCCC2CCCCC21 (configuration not stated)
cell number change: -7.23% | AC50 [2]: 0.231 µM [falling, full curve, poor fit]

O=C(Nc1ccc(O)cc1)c1ccccc1OCc1ccccc1
cell number change: -31% | AC50 [1]: 16.4 µM [falling, single point]
